Patent publication EP3255116A1, “COMPOSITIONS COMPRISING A FLUOROOLEFIN” (The Chemours Company FC, LLC, priority 2005, dated 2006)

Assay: Kinematic viscosity of lactone compatibilizers
Type: physicochemical
Settings: at 40°C
Description: Lactone compatibilizers generally have a kinematic viscosity of less than about 7 centistokes at 40°C. For instance, gamma-undecalactone has kinematic viscosity of 5.4 centistokes and cis-(3-hexyl-5-methyl)dihydrofuran-2-one has viscosity of 4.5 centistokes both at 40°C. Lactone compatibilizers may be available commercially or prepared by methods as described in U. S. patent application 10/910,495 filed August 3, 2004, incorporated herein by reference.

CCCCCCCC1CCC(=O)O1 (stereo not shown) [gamma-undecalactone]
kinematic viscosity: 5.4 centistokes
